Results reported in the supplement of paper PMC10849652.
This is one part of the list. Residues, ends and D or L forms follow the SMILES beside them. *: point of attachment. Cbz = O=C(OCc1ccccc1)*

Chains of the proteins cited; added tags and fusions are not shown. Lines headed by an entry give the natural chain unless they say otherwise; changes in a name come on top.
UniProt Q9BY41: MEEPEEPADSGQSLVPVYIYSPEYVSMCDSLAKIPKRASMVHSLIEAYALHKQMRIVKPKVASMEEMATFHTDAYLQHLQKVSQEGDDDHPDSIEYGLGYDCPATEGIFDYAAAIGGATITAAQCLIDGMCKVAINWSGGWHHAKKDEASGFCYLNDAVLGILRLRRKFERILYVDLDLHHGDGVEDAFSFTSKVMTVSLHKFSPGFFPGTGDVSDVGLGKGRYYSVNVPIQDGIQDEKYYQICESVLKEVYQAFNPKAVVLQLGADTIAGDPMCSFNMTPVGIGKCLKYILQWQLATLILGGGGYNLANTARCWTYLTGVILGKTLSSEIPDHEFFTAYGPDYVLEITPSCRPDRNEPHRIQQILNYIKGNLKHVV
UniProt O94927: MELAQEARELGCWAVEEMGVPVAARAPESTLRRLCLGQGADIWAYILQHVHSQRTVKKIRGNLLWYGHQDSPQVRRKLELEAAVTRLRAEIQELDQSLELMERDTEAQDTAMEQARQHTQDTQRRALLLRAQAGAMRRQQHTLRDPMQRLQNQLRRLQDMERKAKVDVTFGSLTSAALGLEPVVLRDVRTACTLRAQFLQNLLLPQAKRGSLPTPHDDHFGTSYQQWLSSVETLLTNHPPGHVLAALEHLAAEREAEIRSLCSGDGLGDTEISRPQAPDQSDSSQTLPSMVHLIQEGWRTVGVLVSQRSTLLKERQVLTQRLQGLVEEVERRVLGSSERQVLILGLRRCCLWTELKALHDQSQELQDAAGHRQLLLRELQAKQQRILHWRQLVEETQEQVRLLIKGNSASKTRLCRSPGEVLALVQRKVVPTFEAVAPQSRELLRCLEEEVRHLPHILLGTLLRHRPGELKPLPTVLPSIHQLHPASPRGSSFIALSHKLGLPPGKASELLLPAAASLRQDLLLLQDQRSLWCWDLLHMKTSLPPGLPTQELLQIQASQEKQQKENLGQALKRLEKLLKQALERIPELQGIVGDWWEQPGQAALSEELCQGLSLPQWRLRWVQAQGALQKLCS
UniProt Q9NRZ9: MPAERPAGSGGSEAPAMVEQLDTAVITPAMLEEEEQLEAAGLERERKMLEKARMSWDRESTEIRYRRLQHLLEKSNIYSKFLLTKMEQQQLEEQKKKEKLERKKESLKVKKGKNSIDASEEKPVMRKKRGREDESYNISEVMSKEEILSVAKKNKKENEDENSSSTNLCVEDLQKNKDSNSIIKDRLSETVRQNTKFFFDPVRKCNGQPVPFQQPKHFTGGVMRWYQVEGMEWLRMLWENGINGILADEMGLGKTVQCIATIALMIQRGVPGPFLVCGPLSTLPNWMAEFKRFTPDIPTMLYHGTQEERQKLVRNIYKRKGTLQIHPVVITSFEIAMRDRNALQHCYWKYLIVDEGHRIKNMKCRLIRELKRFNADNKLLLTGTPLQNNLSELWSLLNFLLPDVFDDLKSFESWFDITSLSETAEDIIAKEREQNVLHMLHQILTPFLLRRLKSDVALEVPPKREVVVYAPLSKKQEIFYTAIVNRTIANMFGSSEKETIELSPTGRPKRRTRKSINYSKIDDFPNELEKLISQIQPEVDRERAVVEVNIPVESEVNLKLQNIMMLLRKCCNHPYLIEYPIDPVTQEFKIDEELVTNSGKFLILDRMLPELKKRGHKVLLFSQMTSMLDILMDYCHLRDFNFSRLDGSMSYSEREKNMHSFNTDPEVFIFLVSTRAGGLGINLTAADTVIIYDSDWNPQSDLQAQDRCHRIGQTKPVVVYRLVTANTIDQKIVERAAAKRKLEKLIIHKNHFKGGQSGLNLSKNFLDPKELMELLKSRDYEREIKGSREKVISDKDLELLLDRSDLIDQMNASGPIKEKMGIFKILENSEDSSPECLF
UniProt Q9H116: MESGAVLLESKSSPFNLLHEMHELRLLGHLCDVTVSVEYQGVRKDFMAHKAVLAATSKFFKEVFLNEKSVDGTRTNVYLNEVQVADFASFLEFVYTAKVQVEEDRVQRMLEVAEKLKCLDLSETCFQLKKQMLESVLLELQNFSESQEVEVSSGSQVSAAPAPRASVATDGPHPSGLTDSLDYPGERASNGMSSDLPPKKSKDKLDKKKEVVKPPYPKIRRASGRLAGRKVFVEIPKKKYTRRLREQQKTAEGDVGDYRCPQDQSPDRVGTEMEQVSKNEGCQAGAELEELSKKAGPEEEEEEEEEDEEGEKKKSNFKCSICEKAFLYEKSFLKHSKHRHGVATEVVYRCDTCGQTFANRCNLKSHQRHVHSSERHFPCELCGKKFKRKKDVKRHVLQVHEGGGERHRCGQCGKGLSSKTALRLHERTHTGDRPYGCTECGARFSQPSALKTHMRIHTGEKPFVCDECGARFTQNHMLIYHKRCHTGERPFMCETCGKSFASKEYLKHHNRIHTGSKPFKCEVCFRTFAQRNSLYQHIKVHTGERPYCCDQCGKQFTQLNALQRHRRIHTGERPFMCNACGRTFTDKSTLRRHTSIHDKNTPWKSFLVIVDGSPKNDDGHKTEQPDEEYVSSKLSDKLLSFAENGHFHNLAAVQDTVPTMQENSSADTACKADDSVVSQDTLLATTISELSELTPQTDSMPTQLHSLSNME
UniProt P14210, whole entry, looked up: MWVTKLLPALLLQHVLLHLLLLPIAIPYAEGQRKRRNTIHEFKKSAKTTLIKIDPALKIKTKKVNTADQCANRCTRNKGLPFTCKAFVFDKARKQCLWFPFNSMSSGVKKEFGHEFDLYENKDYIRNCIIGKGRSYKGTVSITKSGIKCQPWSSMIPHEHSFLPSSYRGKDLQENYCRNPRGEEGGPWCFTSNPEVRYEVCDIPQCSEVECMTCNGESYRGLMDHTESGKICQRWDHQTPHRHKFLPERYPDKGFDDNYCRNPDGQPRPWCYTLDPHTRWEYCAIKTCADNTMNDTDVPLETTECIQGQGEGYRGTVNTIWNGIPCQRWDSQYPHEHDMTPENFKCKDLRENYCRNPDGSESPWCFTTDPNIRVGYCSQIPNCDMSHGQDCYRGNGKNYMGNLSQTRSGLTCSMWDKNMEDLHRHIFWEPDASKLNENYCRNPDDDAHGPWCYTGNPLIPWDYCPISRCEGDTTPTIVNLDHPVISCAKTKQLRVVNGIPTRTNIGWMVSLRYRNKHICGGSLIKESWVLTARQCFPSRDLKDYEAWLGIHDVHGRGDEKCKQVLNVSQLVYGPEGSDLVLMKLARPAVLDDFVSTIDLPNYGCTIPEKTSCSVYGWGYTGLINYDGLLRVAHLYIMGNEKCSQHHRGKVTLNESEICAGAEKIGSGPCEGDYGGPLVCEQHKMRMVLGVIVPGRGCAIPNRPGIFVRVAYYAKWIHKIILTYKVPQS
UniProt Q8IYU2: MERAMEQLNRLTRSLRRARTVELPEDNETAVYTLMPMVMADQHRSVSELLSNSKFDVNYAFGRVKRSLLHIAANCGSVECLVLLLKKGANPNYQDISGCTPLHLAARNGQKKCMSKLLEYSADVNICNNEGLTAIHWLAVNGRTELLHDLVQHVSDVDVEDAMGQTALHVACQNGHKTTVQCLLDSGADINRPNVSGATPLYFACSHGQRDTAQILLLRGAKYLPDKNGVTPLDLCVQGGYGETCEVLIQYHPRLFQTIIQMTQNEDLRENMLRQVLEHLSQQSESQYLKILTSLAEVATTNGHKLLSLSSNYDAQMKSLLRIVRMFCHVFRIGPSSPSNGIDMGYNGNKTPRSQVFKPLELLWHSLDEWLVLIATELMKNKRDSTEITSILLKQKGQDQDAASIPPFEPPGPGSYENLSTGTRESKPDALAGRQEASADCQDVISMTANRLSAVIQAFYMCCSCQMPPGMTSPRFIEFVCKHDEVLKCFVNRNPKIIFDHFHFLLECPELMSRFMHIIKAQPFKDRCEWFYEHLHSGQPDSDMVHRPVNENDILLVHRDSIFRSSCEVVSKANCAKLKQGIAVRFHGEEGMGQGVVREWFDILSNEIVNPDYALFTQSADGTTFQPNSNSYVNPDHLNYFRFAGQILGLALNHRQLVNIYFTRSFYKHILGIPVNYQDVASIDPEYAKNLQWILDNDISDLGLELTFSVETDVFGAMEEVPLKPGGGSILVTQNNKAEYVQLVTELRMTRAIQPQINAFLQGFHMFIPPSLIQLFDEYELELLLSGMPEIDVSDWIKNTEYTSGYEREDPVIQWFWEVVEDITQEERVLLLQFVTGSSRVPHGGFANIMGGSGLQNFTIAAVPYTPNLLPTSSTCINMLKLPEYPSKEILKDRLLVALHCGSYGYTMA
UniProt Q14469: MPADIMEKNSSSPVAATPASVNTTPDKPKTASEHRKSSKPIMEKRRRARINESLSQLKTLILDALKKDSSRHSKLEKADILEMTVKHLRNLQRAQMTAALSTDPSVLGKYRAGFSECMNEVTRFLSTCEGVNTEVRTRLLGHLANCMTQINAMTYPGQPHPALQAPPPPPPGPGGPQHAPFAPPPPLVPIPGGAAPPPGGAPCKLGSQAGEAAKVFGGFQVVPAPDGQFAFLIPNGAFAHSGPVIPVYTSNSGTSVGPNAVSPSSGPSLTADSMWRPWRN
UniProt Q9Y5Q9: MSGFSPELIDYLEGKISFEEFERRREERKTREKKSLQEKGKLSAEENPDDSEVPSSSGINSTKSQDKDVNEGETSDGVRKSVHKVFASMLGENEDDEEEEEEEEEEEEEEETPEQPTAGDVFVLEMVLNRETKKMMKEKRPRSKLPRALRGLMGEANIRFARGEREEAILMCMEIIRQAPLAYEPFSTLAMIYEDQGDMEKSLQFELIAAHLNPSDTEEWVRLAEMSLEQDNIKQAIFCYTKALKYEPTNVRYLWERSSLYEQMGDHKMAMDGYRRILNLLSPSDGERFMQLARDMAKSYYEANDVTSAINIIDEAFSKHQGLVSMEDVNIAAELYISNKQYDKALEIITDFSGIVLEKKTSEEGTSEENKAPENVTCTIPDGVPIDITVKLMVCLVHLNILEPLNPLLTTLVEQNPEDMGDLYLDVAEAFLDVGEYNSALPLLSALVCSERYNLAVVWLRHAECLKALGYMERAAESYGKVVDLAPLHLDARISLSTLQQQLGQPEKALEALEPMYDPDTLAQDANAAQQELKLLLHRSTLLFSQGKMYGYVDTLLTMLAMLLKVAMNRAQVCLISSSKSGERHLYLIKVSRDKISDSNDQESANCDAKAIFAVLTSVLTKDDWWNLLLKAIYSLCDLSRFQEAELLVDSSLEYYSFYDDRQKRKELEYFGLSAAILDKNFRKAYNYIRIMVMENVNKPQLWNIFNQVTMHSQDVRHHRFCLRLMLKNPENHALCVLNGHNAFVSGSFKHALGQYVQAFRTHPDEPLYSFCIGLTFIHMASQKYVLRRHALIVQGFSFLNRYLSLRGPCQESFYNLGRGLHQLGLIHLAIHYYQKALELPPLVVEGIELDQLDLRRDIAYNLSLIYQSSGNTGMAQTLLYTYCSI
UniProt P42357: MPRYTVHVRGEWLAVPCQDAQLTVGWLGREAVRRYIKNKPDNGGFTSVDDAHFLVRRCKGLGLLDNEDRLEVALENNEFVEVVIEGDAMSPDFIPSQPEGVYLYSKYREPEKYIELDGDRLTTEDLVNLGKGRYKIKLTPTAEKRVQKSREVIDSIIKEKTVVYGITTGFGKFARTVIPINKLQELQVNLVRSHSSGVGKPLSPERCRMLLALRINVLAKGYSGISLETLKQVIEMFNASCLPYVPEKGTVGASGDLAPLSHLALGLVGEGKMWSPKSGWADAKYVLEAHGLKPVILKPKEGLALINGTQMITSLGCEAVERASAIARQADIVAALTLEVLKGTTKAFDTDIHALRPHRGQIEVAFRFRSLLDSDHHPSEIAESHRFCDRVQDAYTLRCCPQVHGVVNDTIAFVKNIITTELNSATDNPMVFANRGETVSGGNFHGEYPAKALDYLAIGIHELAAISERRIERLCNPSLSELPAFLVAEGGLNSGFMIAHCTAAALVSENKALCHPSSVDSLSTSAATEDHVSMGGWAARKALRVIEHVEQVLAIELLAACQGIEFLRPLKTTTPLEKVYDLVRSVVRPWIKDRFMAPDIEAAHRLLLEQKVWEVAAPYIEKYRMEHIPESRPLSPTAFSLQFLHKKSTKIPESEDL
UniProt Q9H6D7: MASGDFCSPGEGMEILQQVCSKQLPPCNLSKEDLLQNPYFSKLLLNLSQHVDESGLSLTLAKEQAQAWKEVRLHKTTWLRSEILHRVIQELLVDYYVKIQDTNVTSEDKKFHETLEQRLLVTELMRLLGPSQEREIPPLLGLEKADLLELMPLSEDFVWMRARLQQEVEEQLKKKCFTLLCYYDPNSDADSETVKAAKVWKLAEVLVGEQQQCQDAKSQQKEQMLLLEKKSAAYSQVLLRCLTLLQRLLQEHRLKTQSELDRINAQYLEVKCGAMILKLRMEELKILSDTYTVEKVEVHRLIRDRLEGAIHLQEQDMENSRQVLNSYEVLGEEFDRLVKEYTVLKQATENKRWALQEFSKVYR
UniProt P68871: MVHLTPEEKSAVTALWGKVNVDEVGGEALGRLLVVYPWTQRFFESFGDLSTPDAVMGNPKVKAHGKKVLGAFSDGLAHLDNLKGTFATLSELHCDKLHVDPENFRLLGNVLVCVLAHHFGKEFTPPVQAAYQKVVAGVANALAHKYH

How the values were obtained:
Test in all cases: log2 fold change, soluble protein after heating vs DMSO (PISA); higher = thermal stabilisation; K562 cells, 10 uM, 30 min; active = over 0.2 and 3.5 SD of the protein, either way, in both replicates (recomputed)
[1] = compound: CC(=O)c1cnc2ccc(-c3cc(Cl)c(O)c(Cl)c3)nc2c1N[C@H]1CC[C@H](CN(C)C)CC1
How it was run: (§1)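 Quantification of soluble protein used TMTpro 16plex LC-MS/MS, with channel sums equalised. Samples were the supernatant after 21,000xg for 90 min of pooled aliquots from K562 cells (2×10^6 cells/mL) treated with 10 μM compound for 30 min, heated for 3 min over 48°C-58°C, and extracted in PBS with 0.5% NP-40 at 4°C. Values, from duplicates, describe thermal stability against control samples on a log2 fold-change scale.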

[2] = compound: CC(C)(C)Cn1c(N)nc2ccc(-c3[nH]c(C(C)(C)C)nc3-c3ccc(F)cc3)nc21 [ralimetinib]
How it was run: as §1

[3] = compound: CC(C)(O)CC(=O)NCCn1ccc2ncnc(Nc3ccc(Oc4cccc(C(F)(F)F)c4)c(Cl)c3)c21
How it was run: as §1

[4] = compound: CC(C)C1=C2N=C(C=C(N2N=C1)NCC3=CC=CC=C3)NCCCCCCN
How it was run: as §1

[5] = compound: CC(C)C[C@@H](C=O)NC(=O)[C@H](CC(C)C)NC(=O)[C@H](CC(C)C)NC(=O)OCc1ccccc1
How it was run: as §1

[6] = compound: CC1=C(C(CC(=O)N1)C2=CC=C(C=C2)C(F)(F)F)C(=O)NC3=C(C=C4C(=C3)C=NN4)F
How it was run: as §1

[7] = compound: CC1=C(C2=C(C=C1)C(=O)C3=CC=CC=C3N2CCCN)C
How it was run: as §1

[8] = compound: C=CC(=O)N1CCC[C@@H](n2nc(-c3ccc(Oc4ccccc4)cc3)c3c(N)ncnc32)C1 [ibrutinib]
How it was run: as §1

[9] = compound: C1COCCN1CCN2C3=CC=CC=C3N=C2NC(=O)C4=CC(=CC=C4)[N+](=O)[O-] [IRAK-1-4 Inhibitor I]
How it was run: as §1

[10] = compound: CC(C)N(C[C@H]1O[C@@H](n2cnc3c(N)ncnc32)[C@H](O)[C@@H]1O)[C@H]1C[C@@H](CCc2nc3cc(C(C)(C)C)ccc3[nH]2)C1 [pinometostat]
How it was run: as §1

Measured: log2 fold change

H6PD (UniProt O95479)
inactive: [1] 0.041 | [2] -0.122 | [3] 0.177 | [4] -0.05 | [5] -0.027 | [6] -0.168 | [7] 0.017

HEXD isoform 2 (UniProt Q8WVB3)
inactive: [3] 0.089 | [4] -0.003

H3-3A (UniProt P84243)
inactive: [8] -0.016 | [4] -0.07
active: [7] 0.656

H3C1 (UniProt P68431)
inactive: [2] -0.137 | [5] -0.099

GSTA1 (UniProt P08263)
inactive: [8] 0.1 | [3] -0.139 | [6] -0.113 | [7] 0.081

HDAC8 (UniProt Q9BY41)
inactive: [3] -0.219

HDAC10 (UniProt Q969S8)
inactive: [8] -0.01 | [1] 0.137 | [2] 0.006 | [4] -0.124 | [5] -0.026 | [7] -0.287

GYG2 (UniProt O15488)
inactive: [4] -0.174

HAUS5 (UniProt O94927)
inactive: [9] -0.214 | [1] 0.057 | [2] 0.29 | [5] 0.158 | [10] 0.36 | [6] -0.032 | [7] -0.04

HGD (UniProt Q93099)
inactive: [3] 0.023

HAUS7 isoform 2 (UniProt Q99871)
inactive: [1] 0.141 | [2] 0.214 | [5] 0.176

GTF2H4 (UniProt Q92759)
inactive: [1] -0.053 | [3] 0.079 | [6] 0.02 | [7] 0.054

GTPBP4 (UniProt Q9BZE4)
inactive: [8] 0.025 | [1] 0.093 | [2] 0.145 | [3] 0.043 | [5] 0.318 | [6] 0.053 | [7] -0.05

HAUS3 (UniProt Q68CZ6)
inactive: [9] -0.084 | [1] -0.055 | [2] 0.214 | [3] 0.015 | [4] -0.56 | [5] 0.172 | [10] 0.272 | [7] -0.007

HAUS2 (UniProt Q9NVX0)
inactive: [1] 0.083 | [4] -0.179

HELLS (UniProt Q9NRZ9)
inactive: [8] -0.111 | [3] 0.184

HACD2 (UniProt Q6Y1H2)
inactive: [4] 0.006 | [7] 0.119

GZF1 (UniProt Q9H116)
inactive: [1] 0.152

GUF1 (UniProt Q8N442)
inactive: [9] -0.004 | [1] 0.065 | [2] -0.025 | [4] -0.041 | [5] 0.011 | [10] 0.048 | [6] -0.08 | [7] 0.35

GSTM3 (UniProt P21266)
inactive: [8] 0.066 | [1] -0.059 | [3] 0.046 | [4] 0.021 | [6] -0.048 | [7] 0.03

HERPUD1 (UniProt Q15011)
inactive: [4] -0.007 | [7] -0.039

HBZ, A0A494C057
inactive: [8] 0.284 | [4] -0.054

HGF (UniProt P14210)
inactive: [8] -0.006 | [3] -0.018 | [6] 0.117 | [7] -0.389

HACE1 (UniProt Q8IYU2)
inactive: [4] -0.178 | [7] 0.089

HES1 (UniProt Q14469)
inactive: [9] -0.262 | [1] -0.116 | [4] -0.019 | [10] 0.095 | [7] 0.076

GTF3C3 (UniProt Q9Y5Q9)
inactive: [9] -0.144 | [8] -0.122 | [4] 0.006 | [10] -0.041 | [6] 0.234 | [7] 0.051

HFM1 (UniProt A2PYH4)
inactive: [8] -0.523

GTPBP8 (UniProt Q8N3Z3)
inactive: [9] -0.078 | [4] -0.17 | [10] 0.015 | [6] -0.031 | [7] 0.281

HAL (UniProt P42357)
inactive: [1] -0.404 | [3] 0.363 | [6] -0.753 | [7] 0.954

Quoted at random: 2 entries already listed.
HAUS3 (UniProt Q68CZ6)
inactive: [9] -0.084 | [1] -0.055 | [2] 0.214 | [3] 0.015 | [4] -0.56 | [5] 0.172 | [10] 0.272 | [7] -0.007

H3C1 (UniProt P68431)
inactive: [2] -0.137 | [5] -0.099

The list continues:

HCFC1 (UniProt P51610)
inactive: [9] -0.016 | [2] -0.085 | [4] 0.074 | [5] 0.063 | [10] 0.031 | [6] 0.003 | [7] 0.022

HAUS4 (UniProt Q9H6D7)
active: [4] -0.51
inactive: [8] 0.103 | [1] -0.107 | [2] 0.112 | [3] 0.246 | [5] 0.139 | [7] 0.048

HABP4 (UniProt Q5JVS0)
inactive: [8] -0.25 | [2] -0.039 | [3] -0.126 | [4] 0.222 | [5] 0.178

HECTD4 (UniProt Q9Y4D8)
inactive: [9] 0.087 | [4] -0.007 | [10] 0.212

GTF2H1 (UniProt P32780)
inactive: [9] -0.126 | [2] 0.071 | [4] -0.12 | [5] 0.081 | [10] 0.164

HAUS8 (UniProt Q9BT25)
inactive: [1] 0.232 | [2] 0.255 | [5] 0.137 | [6] 0.098

HDAC5 isoform 3 (UniProt Q9UQL6)
inactive: [8] -0.007 | [1] -0.297 | [3] 0.033 | [4] 0.078 | [6] -0.004 | [7] 0.021

HBB (UniProt P68871)
inactive: [1] -0.1

HBD (UniProt E9PEW8)
inactive: [4] 0.127 | [6] -0.069
